Assay [1] addresses T1, GFP-tagged Vps16 (UniProt Q9H269).
T1 sequence: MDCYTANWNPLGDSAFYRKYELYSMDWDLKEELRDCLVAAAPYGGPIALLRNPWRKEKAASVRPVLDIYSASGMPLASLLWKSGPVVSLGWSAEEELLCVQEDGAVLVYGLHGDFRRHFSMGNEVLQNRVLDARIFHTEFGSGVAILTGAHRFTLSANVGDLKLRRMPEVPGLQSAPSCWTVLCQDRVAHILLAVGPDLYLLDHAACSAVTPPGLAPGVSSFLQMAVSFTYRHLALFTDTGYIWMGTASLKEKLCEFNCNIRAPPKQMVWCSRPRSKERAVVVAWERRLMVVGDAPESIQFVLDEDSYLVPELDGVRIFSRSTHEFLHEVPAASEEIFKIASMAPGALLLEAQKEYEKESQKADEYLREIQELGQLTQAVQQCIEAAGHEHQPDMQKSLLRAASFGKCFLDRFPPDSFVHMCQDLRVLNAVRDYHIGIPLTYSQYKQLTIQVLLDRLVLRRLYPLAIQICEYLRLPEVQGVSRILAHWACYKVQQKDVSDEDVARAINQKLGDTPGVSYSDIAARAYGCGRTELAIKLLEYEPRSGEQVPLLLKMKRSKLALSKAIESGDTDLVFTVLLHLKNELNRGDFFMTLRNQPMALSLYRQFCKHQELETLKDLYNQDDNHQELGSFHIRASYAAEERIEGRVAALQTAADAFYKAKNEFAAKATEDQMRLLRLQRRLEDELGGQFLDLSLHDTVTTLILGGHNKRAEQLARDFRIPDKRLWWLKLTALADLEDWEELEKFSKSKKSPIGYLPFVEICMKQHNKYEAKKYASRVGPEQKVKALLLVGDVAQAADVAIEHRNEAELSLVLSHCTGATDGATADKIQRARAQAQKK
Put plainly: co-IP; IP of GFP-tagged subunits overexpressed in HeLa cells, blot for endogenous Vps8; lysis buffer 40 mM TRIS pH 7.4, 100 mM NaCl, 0.1% TX-100, 5 mM EDTA; protein A beads with antibody, 1 h at 4 °C.

The target of assay [2] is T2, GFP-Vps11 (UniProt Q9H270).
T2 sequence: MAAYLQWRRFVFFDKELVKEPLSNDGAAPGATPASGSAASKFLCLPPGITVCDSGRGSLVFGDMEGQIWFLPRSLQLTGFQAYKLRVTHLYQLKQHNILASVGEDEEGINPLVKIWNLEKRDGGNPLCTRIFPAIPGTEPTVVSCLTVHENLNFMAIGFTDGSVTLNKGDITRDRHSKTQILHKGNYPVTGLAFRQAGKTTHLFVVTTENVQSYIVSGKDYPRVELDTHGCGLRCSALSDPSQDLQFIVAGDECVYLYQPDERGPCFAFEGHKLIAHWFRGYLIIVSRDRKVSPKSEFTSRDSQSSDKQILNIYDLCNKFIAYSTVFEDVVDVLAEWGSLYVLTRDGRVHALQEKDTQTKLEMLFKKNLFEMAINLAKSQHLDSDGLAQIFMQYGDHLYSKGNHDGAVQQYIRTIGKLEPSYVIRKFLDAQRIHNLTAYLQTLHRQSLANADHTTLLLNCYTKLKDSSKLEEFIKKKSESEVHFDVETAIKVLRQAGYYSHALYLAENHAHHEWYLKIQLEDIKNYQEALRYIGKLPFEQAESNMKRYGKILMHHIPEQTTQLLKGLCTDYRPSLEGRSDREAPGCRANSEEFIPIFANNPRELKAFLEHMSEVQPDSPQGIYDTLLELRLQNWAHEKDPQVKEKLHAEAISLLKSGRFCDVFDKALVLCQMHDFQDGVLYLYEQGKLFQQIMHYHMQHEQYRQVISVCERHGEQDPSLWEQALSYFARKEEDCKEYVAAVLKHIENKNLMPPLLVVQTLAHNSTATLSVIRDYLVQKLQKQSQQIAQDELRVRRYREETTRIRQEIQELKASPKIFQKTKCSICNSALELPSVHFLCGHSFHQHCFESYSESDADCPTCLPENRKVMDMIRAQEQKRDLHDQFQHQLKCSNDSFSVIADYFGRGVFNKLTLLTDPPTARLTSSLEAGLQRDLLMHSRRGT
The description is as above.

Assay [3] deals with T3, GFP-Vps3 (UniProt Q8WUH2).
T3 sequence: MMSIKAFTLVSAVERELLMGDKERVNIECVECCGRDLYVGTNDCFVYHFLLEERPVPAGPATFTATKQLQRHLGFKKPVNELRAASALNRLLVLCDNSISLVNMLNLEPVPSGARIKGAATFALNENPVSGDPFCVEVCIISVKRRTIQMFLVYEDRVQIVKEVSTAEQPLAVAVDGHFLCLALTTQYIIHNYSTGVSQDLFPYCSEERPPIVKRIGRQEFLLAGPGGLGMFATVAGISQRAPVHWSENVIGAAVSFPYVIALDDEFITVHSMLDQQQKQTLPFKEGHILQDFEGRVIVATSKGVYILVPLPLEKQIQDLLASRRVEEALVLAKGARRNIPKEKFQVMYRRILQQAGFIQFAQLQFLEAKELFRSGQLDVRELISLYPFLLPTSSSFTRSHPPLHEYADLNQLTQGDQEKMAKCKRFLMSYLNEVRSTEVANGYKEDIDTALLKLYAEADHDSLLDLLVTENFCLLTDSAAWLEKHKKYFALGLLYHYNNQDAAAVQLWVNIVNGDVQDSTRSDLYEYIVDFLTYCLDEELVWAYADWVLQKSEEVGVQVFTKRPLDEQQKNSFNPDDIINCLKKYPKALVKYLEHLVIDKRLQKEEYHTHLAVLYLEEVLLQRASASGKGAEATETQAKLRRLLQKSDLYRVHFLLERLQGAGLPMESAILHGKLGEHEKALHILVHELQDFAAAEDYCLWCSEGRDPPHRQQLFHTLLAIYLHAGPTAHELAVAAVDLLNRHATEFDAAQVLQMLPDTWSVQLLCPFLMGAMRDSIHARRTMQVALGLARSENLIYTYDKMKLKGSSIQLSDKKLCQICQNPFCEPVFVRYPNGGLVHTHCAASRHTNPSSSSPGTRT
The description is as above.

Assay [4] addresses T4, Vps3 (proximity ligation assay in HeLa cells) (UniProt Q8WUH2).
T4 sequence: T3 sequence
Put plainly: proximity ligation; PLA on fixed, permeabilised HeLa cells with mouse PLUS and rabbit MINUS probes; signal corrected for protein expression and cell size.

The target of assay [5] is T5, GFP-tagged Vps41, P49754.
T5 chain: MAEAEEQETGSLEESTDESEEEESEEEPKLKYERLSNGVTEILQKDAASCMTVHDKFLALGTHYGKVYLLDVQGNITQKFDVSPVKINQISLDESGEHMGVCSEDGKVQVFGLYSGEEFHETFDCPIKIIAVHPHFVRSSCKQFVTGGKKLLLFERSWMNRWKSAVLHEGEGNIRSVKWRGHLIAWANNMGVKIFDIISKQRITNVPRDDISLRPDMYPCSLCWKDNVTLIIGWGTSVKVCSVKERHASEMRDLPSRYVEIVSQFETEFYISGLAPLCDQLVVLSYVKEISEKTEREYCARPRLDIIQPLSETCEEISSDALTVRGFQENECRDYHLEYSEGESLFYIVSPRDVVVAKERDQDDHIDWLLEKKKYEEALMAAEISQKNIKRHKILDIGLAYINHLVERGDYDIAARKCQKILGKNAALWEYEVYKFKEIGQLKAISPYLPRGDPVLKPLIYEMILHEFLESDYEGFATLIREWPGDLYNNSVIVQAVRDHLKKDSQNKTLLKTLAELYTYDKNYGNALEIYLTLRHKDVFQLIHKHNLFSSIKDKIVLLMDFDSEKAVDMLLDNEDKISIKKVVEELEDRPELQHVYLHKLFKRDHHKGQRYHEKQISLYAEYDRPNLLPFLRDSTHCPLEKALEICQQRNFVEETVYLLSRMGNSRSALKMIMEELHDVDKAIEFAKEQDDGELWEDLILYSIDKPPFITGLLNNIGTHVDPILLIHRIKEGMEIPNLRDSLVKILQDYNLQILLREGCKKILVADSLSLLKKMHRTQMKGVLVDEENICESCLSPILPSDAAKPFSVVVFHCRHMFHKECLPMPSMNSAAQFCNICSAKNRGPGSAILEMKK
The experiment in a line: co-IP; IP of GFP-tagged subunits overexpressed in HeLa cells, blot for endogenous Vps8; lysis buffer 40 mM TRIS pH 7.4, 100 mM NaCl, 0.1% TX-100, 5 mM EDTA; protein A beads with antibody, 1 h at 4 °C. To be noted: remark: other sources report otherwise.

These are yes or no findings as the source states them, for the method shown. Binding seen in cells or lysates may run through a third protein. Some binding calls cover weakened binding; strength is not graded here. For some assays here: Sequences can lack the tags named with a protein.

B1: endogenous Vps8 (protein, UniProt Q8N3P4 1-1428)
chain: MENEPDHENVEQSLCAKTSEEELNKSFNLEASLSKFSYIDMDKELEFKNDLIDDKEFDIPQVDTPPTLESILNETDDEDESFILEDPTLLNIDTIDSHSYDTSSVASSDSGDRTNLKRKKKLPDSFSLHGSVMRHSLLKGISAQIVSAADKVDAGLPTAIAVSSLIAVGTSHGLALIFGKDQNQALRLCLGSTSVGGQYGAISALSINNDCSRLLCGFAKGQITMWDLASGKLLRSITDAHPPGTAILHIKFTDDPTLAICNDSGGSVFELTFKRVMGVRTCESRCLFSGSKGEVCCIEPLHSKPELKDHPITQFSLLAMASLTKILVIGLKPSLKVWMTFPYGRMDPSSVPLLAWHFVAVQNYVNPMLAFCRGDVVHFLLVKRDESGAIHVTKQKHLHLYYDLINFTWINSRTVVLLDSVEKLHVIDRQTQEELETVEISEVQLVYNSSHFKSLATGGNVSQALALVGEKACYQSISSYGGQIFYLGTKSVYVMMLRSWRERVDHLLKQDCLTEALALAWSFHEGKAKAVVGLSGDASKRKAIVADRMVEILFHYADRALKKCPDQGKIQVMEQHFQDMVPVIVDYCLLLQRKDLLFSQMYDKLSENSVAKGVFLECLEPYILSDKLVGITPQVMKDLIVHFQDKKLMENVEALIVHMDITSLDIQQVVLMCWENRLYDAMIYVYNRGMNEFISPMEKLFRVIAPPLNAGKTLTDEQVVMGNKLLVYISCCLAGRAYPLGDIPEDLVPLVKNQVFEFLIRLHSAEASPEEEIYPYIRTLLHFDTREFLNVLALTFEDFKNDKQAVEYQQRIVDILLKVMVENSDFTPSQVGCLFTFLARQLAKPDNTLFVNRTLFDQVLEFLCSPDDDSRHSERQQVLLELLQAGGIVQFEESRLIRMAEKAEFYQICEFMYEREHQYDKIIDCYLRDPLREEEVFNYIHNILSIPGHSAEEKQSVWQKAMDHIEELVSLKPCKAAELVATHFSGHIETVIKKLQNQVLLFKFLRSLLDPREGIHVNQELLQISPCITEQFIELLCQFNPTQVIETLQVLECYRLEETIQITQKYQLHEVTAYLLEKKGDIHGAFLIMLERLQSKLQEVTHQGENTKEDPSLKDVEDTMVETIALCQRNSHNLNQQQREALWFPLLEAMMAPQKLSSSAIPHLHSEALKSLTMQVLNSMAAFIALPSILQRILQDPVYGKGKLGEIQGLILGMLDTFNYEQTLLETTTSLLNQDLHWSLCNLRASVTRGLNPKQDYCSICLQQYKRRQEMADEIIVFSCGHLYHSFCLQNKECTVEFEGQTRWTCYKCSSSNKVGKLSENSSEIKKGRITPSQVKMSPSYHQSKGDPTAKKGTSEPVLDPQQIQAFDQLCRLYRGSSRLALLTELSQNRSSESYRPFSGSQSAPAFNSIFQNENFQLQLIPPPVTED
For B1, the binding result in assay [1], in assay [2] and in assay [3] was “binds” in each case.

B2: Vps8 (proximity ligation assay in HeLa cells) (protein, UniProt Q8N3P4 1-1428)
chain: B1 chain
Consider B2, for which the binding entry in assay [4] is “binds”.

B3: endogenous Vps8, Q8N3P4 1-1428 (protein)
chain: B1 chain
Consider B3, for which the binding result in assay [5] was “binds”.

Values taken from article PMC5824891.
